{"source": "patent US20260356834A1", "about": "“ANTICONVULSIVE COMPOUNDS AND USES THEREOF” (Jazz Pharmaceuticals Research UK Limite, priority 2023, published 2026)", "tested_on": "C57BL/6J mice", "experiment": "mouse maximal electroshock seizure threshold model (MEST)", "format": "in vivo", "details": "2.5 mg/kg i.p., 30 min", "protocol": "Vehicle=1:2:17 ethanol:Solutol® (Kolliphor® HS 15):saline: 1 mL of ethanol and 2 mL of solutol were warmed to 60 °C and 17 mL of 0.9% saline was added slowly. […]\nVehicle=0.5% HPMC and 0.1% Tween 80:0.5% HPMC and 0.1% Tween 80 in water.", "note": "Several values for one entry are separate records, joined by “and”; a condition that tells them apart may be missing. Equal entries are not always repeated."}
{"smiles": "CN1C(=O)CN=C(c2ccccc2)c2cc(Cl)ccc21", "note": "[Diazepam, diazepam, reference compound]", "values": [{"measurement": "CC50 +/− SEM", "setting": "1:1:18 ethanol:Kolliphor EL:saline", "result": "126.5 ± 2.1", "unit": "mA"}, {"measurement": "CC50 +/− SEM", "setting": "1:2:17 ethanol:Solutol:saline", "result": "125.8 ± 3.9", "unit": "mA"}, {"measurement": "CC50 +/− SEM", "setting": "study with HPMC vehicle", "result": "197.5 ± 3.2 mA and 165.8 ± 1.4 mA"}]}
